Data published in paper PMC8494741.
No constants are given. Whether binding was seen depends on the method and setting. In cells and extracts the contact can be indirect. A yes stands for co-enrichment or nearness to the bait. Other partners may have been found. Tags and fused reporters may be left off the sequences shown.

Protein sequences, listed by entry. Tags and fused reporters are not part of them.
UniProt P49674: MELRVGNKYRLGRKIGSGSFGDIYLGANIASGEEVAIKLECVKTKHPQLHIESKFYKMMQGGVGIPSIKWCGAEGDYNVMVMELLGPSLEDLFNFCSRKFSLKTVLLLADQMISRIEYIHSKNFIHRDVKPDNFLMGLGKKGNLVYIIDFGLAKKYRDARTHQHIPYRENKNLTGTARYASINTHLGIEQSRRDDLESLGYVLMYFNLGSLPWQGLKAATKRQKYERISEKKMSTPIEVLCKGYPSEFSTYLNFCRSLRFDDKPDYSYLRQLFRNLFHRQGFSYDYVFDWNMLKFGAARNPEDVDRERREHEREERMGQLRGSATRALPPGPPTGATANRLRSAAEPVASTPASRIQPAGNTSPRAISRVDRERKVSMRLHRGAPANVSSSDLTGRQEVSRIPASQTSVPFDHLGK
UniProt Q5BJF2: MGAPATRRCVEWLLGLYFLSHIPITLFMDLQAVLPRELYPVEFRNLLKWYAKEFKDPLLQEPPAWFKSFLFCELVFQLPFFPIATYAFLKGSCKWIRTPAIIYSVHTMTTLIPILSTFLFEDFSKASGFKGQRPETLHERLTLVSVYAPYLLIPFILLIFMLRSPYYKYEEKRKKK

molecular target: T1, Flag-tagged LRP6 mutant lacking the extracellular domain (LRP6-ΔN) (human) (UniProt O75581); experiment: affinity purification with mass spectrometry; HEK293T transfected with N-terminally Flag-tagged LRP6-ΔN or empty vector; RIPA lysate; anti-Flag agarose beads overnight at 4 °C; three washes with RIPA; on-bead trypsin digest; Q Exactive
T1 sequence: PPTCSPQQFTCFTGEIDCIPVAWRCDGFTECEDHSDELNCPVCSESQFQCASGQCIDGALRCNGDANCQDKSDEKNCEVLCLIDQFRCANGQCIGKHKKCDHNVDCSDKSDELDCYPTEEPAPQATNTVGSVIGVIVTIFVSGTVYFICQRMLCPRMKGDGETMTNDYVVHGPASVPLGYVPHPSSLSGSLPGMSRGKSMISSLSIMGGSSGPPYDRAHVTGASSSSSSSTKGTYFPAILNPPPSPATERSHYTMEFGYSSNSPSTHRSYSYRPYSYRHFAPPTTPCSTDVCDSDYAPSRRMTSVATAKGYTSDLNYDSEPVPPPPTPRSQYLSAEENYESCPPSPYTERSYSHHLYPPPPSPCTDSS

binding	Substance
binds	CK1ε, endogenous in HEK293T (from UniProt P49674 1-416) (enzyme)
binds	MACF1, endogenous in HEK293T (from UniProt Q9UPN3 1-7388)
binds	Transmembrane protein 97 (TMEM97), endogenous in HEK293T (from UniProt Q5BJF2 1-176)
